According to PMC8295262:
Results are given in words; binding and its absence hold for the method and conditions named. Binding seen in cells or lysates may run through a third protein. Binding calls can cover weak binding; strength is not graded here. Sequences can lack the tags named with a protein.

Molecular target: T1, Flag-tagged C. elegans VHL-1 (C. elegans) (UniProt Q19213)
T1 sequence: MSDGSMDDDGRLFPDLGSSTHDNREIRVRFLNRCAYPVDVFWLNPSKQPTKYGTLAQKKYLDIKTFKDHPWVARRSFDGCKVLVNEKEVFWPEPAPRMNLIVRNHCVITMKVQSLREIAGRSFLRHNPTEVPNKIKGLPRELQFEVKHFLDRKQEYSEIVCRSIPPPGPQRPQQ
Assay: co-IP; HEK293T cells co-transfected; lysis in IP buffer (20 mM Tris-HCl pH 7.5, 1% Triton X-100, 50 mM NaCl, 50 mM NaF, 15 mM Na4P2O7, 0.1 mM EDTA, 2 mM Na3VO4); Flag-tagged protein precipitated on anti-FLAG M2 affinity beads overnight at 4 °C; co-precipitate detected by blot with anti-Myc or anti-GFP

For DAF-15.EGFP (C. elegans), the binding was “binds”.
